Experimental findings from article doi:10.1101/090100 are described below.

Amino acid sequences for entries named in this document (tags omitted). A change or cut given only in a name is not applied to a line headed by its entry.
UniProt O95071: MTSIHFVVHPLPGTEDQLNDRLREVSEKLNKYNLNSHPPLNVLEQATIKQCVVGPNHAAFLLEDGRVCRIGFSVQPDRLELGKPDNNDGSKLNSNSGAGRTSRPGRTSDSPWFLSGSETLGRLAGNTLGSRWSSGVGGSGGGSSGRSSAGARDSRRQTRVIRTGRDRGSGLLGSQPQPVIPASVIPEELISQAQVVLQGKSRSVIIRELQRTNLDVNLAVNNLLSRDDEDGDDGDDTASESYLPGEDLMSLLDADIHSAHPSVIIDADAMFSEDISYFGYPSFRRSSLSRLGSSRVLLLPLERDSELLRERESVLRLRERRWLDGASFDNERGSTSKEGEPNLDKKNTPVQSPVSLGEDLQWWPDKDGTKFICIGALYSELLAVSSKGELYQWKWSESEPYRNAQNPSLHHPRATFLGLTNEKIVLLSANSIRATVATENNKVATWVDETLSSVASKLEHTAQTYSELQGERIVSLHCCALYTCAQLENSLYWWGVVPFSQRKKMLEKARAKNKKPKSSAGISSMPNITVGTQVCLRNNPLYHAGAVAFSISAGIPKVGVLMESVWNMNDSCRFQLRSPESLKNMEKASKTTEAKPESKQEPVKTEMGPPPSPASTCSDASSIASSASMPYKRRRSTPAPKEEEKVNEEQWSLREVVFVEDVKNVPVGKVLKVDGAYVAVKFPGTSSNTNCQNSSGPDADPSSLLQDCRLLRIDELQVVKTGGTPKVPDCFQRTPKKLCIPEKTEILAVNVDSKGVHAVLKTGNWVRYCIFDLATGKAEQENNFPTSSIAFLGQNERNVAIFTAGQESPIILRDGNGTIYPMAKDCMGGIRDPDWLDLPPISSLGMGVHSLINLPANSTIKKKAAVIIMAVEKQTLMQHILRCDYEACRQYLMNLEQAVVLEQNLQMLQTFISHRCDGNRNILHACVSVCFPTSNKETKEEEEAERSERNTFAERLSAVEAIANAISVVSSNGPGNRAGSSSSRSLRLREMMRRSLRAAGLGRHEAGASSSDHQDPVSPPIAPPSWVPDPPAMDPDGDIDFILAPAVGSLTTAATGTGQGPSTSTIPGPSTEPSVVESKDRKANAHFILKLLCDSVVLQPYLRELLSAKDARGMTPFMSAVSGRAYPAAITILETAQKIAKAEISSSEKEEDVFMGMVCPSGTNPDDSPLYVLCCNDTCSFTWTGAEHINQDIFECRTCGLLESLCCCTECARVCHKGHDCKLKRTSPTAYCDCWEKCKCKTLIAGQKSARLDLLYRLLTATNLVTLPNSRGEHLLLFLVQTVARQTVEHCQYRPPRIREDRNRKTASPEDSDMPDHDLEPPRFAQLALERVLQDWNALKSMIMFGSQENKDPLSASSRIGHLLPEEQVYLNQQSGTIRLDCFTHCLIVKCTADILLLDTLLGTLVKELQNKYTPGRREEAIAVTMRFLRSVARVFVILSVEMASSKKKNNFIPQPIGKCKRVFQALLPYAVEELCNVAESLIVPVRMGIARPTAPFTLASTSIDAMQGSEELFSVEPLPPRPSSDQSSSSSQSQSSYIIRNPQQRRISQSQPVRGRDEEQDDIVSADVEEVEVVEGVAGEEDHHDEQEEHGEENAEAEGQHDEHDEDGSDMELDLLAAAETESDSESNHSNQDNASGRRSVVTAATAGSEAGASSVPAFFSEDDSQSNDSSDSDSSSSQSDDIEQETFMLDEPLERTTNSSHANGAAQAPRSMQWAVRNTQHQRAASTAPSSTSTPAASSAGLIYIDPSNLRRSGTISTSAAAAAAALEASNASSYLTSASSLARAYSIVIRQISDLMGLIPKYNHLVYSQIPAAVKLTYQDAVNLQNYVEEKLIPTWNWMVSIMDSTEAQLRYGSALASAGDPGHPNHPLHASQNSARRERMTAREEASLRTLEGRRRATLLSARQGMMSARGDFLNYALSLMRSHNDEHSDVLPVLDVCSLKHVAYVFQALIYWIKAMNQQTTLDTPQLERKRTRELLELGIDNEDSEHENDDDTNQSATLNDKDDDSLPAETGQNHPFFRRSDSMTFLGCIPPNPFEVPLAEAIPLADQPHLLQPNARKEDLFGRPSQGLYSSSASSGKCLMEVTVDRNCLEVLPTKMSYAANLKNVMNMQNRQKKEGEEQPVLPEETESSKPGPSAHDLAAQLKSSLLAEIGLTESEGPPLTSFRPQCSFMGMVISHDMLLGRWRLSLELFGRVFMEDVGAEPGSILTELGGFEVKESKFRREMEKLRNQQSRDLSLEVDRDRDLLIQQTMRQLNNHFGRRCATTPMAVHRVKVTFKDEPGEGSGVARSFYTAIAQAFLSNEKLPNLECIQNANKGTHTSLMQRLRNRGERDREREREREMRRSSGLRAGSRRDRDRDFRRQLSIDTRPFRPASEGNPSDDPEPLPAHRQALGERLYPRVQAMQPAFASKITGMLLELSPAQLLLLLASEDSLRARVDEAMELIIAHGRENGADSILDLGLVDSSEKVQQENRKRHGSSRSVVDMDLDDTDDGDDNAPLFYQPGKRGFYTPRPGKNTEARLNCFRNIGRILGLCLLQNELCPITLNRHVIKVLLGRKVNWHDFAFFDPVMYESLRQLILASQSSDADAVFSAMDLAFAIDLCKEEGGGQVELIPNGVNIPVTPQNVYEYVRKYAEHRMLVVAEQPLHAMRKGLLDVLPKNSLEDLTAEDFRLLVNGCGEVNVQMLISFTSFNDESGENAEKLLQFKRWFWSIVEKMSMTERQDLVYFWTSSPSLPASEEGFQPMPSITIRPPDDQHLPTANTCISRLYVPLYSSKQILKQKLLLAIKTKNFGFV
UniProt P23258: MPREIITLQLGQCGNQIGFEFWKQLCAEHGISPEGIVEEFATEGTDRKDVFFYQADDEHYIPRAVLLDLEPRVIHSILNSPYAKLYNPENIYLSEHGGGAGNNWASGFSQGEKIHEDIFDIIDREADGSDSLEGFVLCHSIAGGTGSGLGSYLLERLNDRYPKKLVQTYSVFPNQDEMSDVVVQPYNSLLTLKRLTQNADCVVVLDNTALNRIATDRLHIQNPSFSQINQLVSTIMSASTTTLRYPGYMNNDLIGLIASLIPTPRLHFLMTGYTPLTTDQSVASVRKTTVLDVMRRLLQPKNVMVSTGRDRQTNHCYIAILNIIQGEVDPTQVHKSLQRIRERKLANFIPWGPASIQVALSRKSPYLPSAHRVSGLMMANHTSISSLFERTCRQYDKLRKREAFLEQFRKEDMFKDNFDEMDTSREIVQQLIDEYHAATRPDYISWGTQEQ

No constants are given. Whether binding was seen depends on the method and setting. Binding seen in cells or lysates may run through a third protein. Binding calls can cover weak binding; strength is not graded here.

The target of the assay is GFP-UBR5 (wild-type) (UniProt O95071). The assay can be described thus: co-IP.

As to γ-tubulin (from UniProt P23258), the binding entry was “binds”.
